Measured values from the supplement of paper PMC10849652.
Some of the results follow.

Amino acid sequences for entries named in this document (tags omitted). A change or cut given only in a name is not applied to a line headed by its entry.
UniProt Q9NWS6: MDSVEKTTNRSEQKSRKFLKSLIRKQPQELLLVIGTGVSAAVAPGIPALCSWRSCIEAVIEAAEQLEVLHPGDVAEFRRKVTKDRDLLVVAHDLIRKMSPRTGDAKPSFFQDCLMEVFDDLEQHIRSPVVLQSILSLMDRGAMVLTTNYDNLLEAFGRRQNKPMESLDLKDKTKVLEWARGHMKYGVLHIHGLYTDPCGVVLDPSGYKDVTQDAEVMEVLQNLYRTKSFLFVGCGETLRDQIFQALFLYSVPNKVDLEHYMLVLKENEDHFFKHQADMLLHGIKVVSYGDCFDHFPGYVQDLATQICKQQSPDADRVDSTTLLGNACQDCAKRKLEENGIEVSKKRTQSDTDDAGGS
UniProt Q5BKY9: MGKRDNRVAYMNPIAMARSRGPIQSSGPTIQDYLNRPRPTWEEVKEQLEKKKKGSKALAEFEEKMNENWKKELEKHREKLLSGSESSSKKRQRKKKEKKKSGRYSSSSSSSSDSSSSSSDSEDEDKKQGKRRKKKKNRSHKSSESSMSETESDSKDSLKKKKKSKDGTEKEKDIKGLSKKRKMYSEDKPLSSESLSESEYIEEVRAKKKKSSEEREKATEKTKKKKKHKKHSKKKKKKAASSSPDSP
UniProt P16930: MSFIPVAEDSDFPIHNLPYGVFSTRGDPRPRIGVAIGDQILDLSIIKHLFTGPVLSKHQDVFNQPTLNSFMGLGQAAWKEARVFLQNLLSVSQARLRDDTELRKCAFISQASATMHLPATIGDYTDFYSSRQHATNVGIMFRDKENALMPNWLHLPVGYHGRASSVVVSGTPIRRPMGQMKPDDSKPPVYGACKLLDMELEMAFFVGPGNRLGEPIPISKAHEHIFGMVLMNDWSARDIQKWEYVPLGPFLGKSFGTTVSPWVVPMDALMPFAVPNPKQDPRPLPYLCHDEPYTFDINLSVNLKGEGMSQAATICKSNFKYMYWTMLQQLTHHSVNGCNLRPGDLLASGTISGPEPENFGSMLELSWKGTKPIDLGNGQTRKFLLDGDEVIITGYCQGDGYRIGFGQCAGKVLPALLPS
UniProt O75477: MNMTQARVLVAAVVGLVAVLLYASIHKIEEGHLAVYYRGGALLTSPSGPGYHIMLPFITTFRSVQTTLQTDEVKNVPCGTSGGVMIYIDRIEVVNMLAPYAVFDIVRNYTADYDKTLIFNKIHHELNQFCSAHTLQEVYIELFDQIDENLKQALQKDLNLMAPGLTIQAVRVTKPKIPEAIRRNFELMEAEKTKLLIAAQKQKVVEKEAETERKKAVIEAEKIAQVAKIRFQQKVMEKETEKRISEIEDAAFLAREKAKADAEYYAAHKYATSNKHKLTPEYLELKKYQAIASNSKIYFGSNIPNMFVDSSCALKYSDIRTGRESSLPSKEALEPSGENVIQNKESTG
UniProt Q96GK7: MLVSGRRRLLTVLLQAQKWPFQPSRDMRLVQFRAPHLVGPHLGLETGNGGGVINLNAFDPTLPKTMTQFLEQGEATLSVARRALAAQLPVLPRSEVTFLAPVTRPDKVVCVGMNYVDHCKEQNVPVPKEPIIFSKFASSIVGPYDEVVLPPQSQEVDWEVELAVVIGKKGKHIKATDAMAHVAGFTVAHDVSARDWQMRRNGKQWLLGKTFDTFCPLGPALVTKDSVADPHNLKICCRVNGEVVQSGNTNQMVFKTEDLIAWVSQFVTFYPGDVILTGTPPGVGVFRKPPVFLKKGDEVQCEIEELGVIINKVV
UniProt Q9C073: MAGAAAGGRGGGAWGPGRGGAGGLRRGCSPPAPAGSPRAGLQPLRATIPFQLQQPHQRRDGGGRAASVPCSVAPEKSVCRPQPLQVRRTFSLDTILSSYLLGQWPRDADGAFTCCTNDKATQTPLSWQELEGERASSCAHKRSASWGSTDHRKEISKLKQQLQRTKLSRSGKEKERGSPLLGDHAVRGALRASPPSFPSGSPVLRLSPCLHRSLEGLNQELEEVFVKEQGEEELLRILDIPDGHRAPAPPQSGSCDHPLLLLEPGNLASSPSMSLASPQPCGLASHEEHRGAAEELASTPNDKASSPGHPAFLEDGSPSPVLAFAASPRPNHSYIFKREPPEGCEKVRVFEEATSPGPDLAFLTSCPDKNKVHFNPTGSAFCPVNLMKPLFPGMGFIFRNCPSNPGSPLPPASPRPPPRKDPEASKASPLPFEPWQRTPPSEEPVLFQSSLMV
UniProt O94905: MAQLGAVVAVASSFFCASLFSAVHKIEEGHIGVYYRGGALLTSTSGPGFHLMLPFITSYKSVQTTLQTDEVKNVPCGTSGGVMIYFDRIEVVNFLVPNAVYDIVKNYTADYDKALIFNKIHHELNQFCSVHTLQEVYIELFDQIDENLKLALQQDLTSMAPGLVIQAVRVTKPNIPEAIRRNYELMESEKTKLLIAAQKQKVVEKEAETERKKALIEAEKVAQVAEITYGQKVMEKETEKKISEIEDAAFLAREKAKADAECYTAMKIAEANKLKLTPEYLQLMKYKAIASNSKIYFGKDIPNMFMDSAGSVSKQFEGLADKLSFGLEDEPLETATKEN
UniProt Q7Z2K6: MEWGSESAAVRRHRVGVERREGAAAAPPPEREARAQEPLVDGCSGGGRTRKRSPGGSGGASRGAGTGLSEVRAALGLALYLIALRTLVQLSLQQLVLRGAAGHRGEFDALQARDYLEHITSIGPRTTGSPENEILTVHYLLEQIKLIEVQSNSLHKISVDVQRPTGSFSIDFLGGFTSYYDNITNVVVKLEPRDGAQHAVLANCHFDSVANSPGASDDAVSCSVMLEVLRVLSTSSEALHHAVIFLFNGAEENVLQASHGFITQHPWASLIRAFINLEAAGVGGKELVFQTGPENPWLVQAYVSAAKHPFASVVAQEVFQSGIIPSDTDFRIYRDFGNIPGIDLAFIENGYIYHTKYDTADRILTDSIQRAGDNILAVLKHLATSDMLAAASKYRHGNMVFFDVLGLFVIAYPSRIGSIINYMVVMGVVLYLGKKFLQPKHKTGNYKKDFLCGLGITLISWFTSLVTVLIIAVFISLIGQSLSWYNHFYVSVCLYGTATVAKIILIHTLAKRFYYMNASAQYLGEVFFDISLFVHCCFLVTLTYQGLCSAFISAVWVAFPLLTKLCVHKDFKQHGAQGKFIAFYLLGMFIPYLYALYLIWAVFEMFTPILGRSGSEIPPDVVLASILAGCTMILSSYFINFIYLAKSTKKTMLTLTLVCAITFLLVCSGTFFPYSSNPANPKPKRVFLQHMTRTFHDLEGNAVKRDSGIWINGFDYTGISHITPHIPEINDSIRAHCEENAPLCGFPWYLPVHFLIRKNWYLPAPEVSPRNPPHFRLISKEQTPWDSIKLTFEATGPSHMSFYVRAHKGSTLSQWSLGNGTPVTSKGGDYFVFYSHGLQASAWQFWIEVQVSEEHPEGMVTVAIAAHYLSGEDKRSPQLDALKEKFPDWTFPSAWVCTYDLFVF
UniProt Q9NRY5: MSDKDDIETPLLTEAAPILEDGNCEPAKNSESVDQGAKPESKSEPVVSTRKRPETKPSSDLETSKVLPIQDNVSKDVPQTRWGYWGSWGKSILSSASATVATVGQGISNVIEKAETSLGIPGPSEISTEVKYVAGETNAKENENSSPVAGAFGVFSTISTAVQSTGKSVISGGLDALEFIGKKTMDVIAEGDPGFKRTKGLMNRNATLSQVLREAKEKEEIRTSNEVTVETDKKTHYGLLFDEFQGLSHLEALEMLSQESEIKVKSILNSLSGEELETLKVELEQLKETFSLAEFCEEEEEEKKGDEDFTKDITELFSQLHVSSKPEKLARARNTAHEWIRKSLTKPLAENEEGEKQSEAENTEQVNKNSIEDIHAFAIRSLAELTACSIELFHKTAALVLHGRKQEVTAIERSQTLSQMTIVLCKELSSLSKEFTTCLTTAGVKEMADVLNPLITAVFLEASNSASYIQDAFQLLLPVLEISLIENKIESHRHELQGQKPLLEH
UniProt Q13868, whole entry, looked up: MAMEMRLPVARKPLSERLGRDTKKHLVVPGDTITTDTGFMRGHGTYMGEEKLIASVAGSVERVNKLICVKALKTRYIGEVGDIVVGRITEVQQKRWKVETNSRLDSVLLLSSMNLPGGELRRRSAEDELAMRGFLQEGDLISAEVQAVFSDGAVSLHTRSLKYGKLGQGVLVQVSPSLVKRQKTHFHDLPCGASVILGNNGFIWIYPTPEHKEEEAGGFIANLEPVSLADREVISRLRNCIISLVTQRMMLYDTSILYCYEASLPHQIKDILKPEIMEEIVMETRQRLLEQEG
UniProt Q9NQT5, whole entry, looked up: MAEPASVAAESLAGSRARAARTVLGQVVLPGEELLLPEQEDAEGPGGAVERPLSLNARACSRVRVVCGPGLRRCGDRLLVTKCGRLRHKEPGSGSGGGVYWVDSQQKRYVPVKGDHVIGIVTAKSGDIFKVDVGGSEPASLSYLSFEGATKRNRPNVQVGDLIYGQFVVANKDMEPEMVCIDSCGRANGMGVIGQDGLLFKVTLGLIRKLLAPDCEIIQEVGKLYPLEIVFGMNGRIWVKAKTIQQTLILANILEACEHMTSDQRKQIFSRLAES
UniProt Q9NUQ9: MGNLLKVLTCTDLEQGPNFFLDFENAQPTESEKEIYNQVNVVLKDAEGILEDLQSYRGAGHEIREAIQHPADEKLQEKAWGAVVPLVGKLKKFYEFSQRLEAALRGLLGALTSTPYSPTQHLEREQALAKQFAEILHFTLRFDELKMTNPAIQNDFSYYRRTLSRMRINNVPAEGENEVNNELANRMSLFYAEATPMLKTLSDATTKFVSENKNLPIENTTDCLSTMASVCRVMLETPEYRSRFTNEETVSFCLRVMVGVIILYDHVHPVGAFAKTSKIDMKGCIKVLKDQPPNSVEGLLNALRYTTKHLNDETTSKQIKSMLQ
UniProt Q6P2I3: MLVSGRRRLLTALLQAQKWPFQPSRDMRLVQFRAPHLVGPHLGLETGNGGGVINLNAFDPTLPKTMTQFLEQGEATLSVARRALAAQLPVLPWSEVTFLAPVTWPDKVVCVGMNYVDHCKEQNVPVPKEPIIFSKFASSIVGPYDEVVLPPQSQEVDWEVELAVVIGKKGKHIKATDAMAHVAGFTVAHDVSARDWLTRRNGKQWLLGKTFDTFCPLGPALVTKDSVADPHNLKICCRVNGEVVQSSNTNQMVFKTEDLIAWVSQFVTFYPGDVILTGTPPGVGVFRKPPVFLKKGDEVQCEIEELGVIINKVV
UniProt Q9H098: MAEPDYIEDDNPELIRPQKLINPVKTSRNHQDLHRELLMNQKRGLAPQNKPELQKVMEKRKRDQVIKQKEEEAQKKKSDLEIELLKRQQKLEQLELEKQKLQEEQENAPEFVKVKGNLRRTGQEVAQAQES
UniProt Q14320: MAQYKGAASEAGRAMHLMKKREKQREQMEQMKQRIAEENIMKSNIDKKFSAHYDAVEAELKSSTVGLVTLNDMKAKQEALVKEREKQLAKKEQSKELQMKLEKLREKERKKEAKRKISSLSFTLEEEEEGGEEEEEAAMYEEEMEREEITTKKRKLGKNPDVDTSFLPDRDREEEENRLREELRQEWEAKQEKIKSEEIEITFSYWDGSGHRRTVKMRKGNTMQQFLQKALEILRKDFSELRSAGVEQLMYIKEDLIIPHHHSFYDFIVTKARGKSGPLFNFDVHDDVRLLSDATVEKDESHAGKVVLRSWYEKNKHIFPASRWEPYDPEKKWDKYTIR

Tests used:
Assay in all cases: log2 fold change, soluble protein after heating vs DMSO (PISA); higher = thermal stabilisation; K562 lysate, 10 uM; active = over 0.2 and 3.5 SD of the protein, either way, in both replicates (recomputed)
lapatinib = compound: CS(=O)(=O)CCNCc1ccc(-c2ccc3ncnc(Nc4ccc(OCc5cccc(F)c5)c(Cl)c4)c3c2)o1 [lapatinib]
Summary of the method: (§1)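 Soluble protein was defined as the supernatant remaining after 21,000xg for 90 min, following pooling of heated aliquots and adjustment to 0.5% NP-40 at 4°C. Before that, crude K562 extract at 1 mg/mL protein in PBS pH 7.4 with 1 mM MgCl2 was treated with 10 μM compound for 30 min and heated for 3 min across 48°C-58°C. Quantification used TMTpro 16plex LC-MS/MS with channel sums equalised, and values are log-two fold changes in thermal stability relative to solvent controls from duplicates.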

pictilisib = compound: CS(=O)(=O)N1CCN(Cc2cc3nc(-c4cccc5[nH]ncc45)nc(N4CCOCC4)c3s2)CC1 [pictilisib]
Summary of the method: as §1

crizotinib = compound: C[C@@H](Oc1cc(-c2cnn(C3CCNCC3)c2)cnc1N)c1c(Cl)ccc(F)c1Cl [crizotinib]
Summary of the method: as §1

[1] = compound: C[C@H](C1=CC=C(C=C1)C(=O)NC2=C3C=CNC3=NC=C2)N
Summary of the method: as §1

duvelisib = compound: C[C@H](Nc1ncnc2nc[nH]c12)c1cc2cccc(Cl)c2c(=O)n1-c1ccccc1 [duvelisib]
Summary of the method: as §1

gandotinib = compound: Cc1cc(Nc2cc(CN3CCOCC3)c3nc(C)c(Cc4ccc(Cl)cc4F)n3n2)n[nH]1 [gandotinib]
Summary of the method: as §1

tozasertib = compound: Cc1cc(Nc2cc(N3CCN(C)CC3)nc(Sc3ccc(NC(=O)C4CC4)cc3)n2)n[nH]1 [tozasertib]
Summary of the method: as §1

doramapimod = compound: Cc1ccc(-n2nc(C(C)(C)C)cc2NC(=O)Nc2ccc(OCCN3CCOCC3)c3ccccc23)cc1 [doramapimod]
Summary of the method: as §1

bafetinib = compound: Cc1ccc(NC(=O)c2ccc(CN3CC[C@H](N(C)C)C3)c(C(F)(F)F)c2)cc1Nc1nccc(-c2cncnc2)n1 [bafetinib]
Summary of the method: as §1

[2] = compound: Cc1cccc(CC(=O)N2CCc3c2ccc(-c2cn(C)c4ncnc(N)c24)c3F)n1
Summary of the method: as §1

nilotinib = compound: Cc1cn(-c2cc(NC(=O)c3ccc(C)c(Nc4nccc(-c5cccnc5)n4)c3)cc(C(F)(F)F)c2)cn1 [nilotinib]
Summary of the method: as §1

[3] = compound: Cc1nc(Nc2n[nH]c3c2CN(C(=O)N[C@H](CN(C)C)c2ccccc2)C3(C)C)c2sccc2n1
Summary of the method: as §1

dasatinib = compound: Cc1nc(Nc2ncc(C(=O)Nc3c(C)cccc3Cl)s2)cc(N2CCN(CCO)CC2)n1 [dasatinib]
Summary of the method: as §1

[4] = compound: Cc1ncc(-c2ccnc(Nc3ccc(S(C)(=O)=O)cc3)n2)n1C(C)C
Summary of the method: as §1

[5] = compound: Cn1cc(-c2ccc3c(c2)CCN3C(=O)Cc2cccc(C(F)(F)F)c2)c2c(N)ncnc21
Summary of the method: as §1

quisinostat = compound: Cn1cc(CNCC2CCN(c3ncc(C(=O)NO)cn3)CC2)c2ccccc21 [quisinostat]
Summary of the method: as §1

tipifarnib = compound: Cn1cncc1[C@@](N)(c1ccc(Cl)cc1)c1ccc2c(c1)c(-c1cccc(Cl)c1)cc(=O)n2C [tipifarnib]
Summary of the method: as §1

[6] = compound: NC(=O)Nc1cc(-c2cccc(F)c2)sc1C(=O)N[C@H]1CCCNC1
Summary of the method: as §1

[7] = compound: NC(=O)c1cnc(N[C@@H]2CCCC[C@@H]2N)nc1Nc1cccc(-n2nccn2)c1
Summary of the method: as §1

[8] = compound: NC1(c2ccc(-c3nc4ccn5c(=O)[nH]nc5c4cc3-c3ccccc3)cc2)CCC1
Summary of the method: as §1

Target	log2 fold change (lapatinib)	log2 fold change (pictilisib)	log2 fold change (crizotinib)	log2 fold change [1]	log2 fold change (duvelisib)	log2 fold change (gandotinib)	log2 fold change (tozasertib)	log2 fold change (doramapimod)	log2 fold change (bafetinib)	log2 fold change [2]	log2 fold change (nilotinib)	log2 fold change [3]	log2 fold change (dasatinib)	log2 fold change [4]	log2 fold change [5]	log2 fold change (quisinostat)	log2 fold change (tipifarnib)	log2 fold change [6]	log2 fold change [7]	log2 fold change [8]
FAM118A (UniProt Q9NWS6)	inactive: 0.02	inactive: -0.006	inactive: -0.054	inactive: -0.09	inactive: 0.019	inactive: 0.002	inactive: -0.016	inactive: -0.013	inactive: -0.059	inactive: 0.118	inactive: -0.017	inactive: -0.03	inactive: -0.043	inactive: -0.003	inactive: -0.082	inactive: -0.103	inactive: 0.016	inactive: 0.013	inactive: 0.003	inactive: -0.023
FAM133B (UniProt Q5BKY9)	inactive: -0.027	inactive: 0.154	inactive: 0.041	inactive: 0.18	inactive: -0.035	inactive: -0.151	inactive: 0.079	inactive: -0.046	inactive: -0.084	inactive: -0.178	inactive: -0.032	inactive: -0.045	inactive: 0.14	inactive: -0.087	inactive: -0.058	inactive: 0.092	inactive: -0.002	inactive: -0.024	inactive: -0.053	inactive: 0.006
FAH isoform 2 (UniProt P16930)	inactive: -0.211	inactive: -0.036	inactive: -0.267	inactive: -0.469	inactive: -0.144	inactive: 0.215	inactive: 0.036	inactive: 0.208	inactive: -0.248	inactive: 0.325	inactive: -0.031	inactive: 0.024	inactive: 0.127	inactive: -0.03	inactive: -0.062	inactive: -0.078	inactive: 0.018	inactive: -0.181	inactive: -0.084	–
ERLIN1 (UniProt O75477)	inactive: -0.041	inactive: -0.01	inactive: 0.032	inactive: -0.094	inactive: -0.011	inactive: 0.033	inactive: 0.019	inactive: 0.048	inactive: -0.027	inactive: 0.03	inactive: 0.011	inactive: -0.031	inactive: -0.01	inactive: -0.034	inactive: 0.033	inactive: 0.107	inactive: 0.049	inactive: -0.047	inactive: -0.009	inactive: 0.035
FAHD2A (UniProt Q96GK7)	inactive: -0.013	inactive: -0.003	inactive: 0.013	inactive: -0.044	inactive: -0.03	inactive: 0.041	inactive: -0.007	inactive: 0.014	inactive: -0.003	inactive: 0.004	inactive: 0.001	inactive: -0.038	inactive: 0.023	inactive: 0.005	inactive: -0.045	inactive: -0.001	inactive: -0.006	inactive: -0.016	inactive: 0.017	inactive: -0.033
FAM117A (UniProt Q9C073)	inactive: -0.026	inactive: -0.012	inactive: 0.016	inactive: 0.062	inactive: 0.021	inactive: 0.003	inactive: -0.025	inactive: 0.019	inactive: -0.005	inactive: -0.046	inactive: 0.007	inactive: 0.098	inactive: -0.034	inactive: 0.023	inactive: -0.054	inactive: -0.058	inactive: 0.009	inactive: 0.051	inactive: 0.01	inactive: 0.009
ERLIN2 (UniProt O94905)	inactive: -0.015	inactive: -0.091	inactive: -0.004	active: 0.304	inactive: 0.003	inactive: -0.077	inactive: 0.02	inactive: 0.043	inactive: -0.015	inactive: -0.114	inactive: -0.009	inactive: 0.001	inactive: -0.013	inactive: -0.019	inactive: 0.03	inactive: 0.021	inactive: 0.012	inactive: -0.038	inactive: 0.012	inactive: -0.01
ERMP1 (UniProt Q7Z2K6)	inactive: -0.006	inactive: -0.023	inactive: -0.014	inactive: -0.069	inactive: -0.036	inactive: 0.122	inactive: -0.008	inactive: -0.021	inactive: 0.019	inactive: 0.054	inactive: 0.049	inactive: -0.035	inactive: -0.006	inactive: 0.019	inactive: -0.011	inactive: -0.04	inactive: -0.089	inactive: -0.002	inactive: -0.005	inactive: -0.021
FAM114A2 (UniProt Q9NRY5)	inactive: 0.106	inactive: -0.013	inactive: 0.013	inactive: -0.023	inactive: 0.011	active: 0.449	inactive: -0.108	inactive: -0.011	inactive: -0.121	inactive: 0.196	inactive: 0.152	inactive: 0.053	inactive: -0.028	inactive: 0.031	inactive: 0.002	inactive: 0.02	inactive: -0.231	inactive: 0	inactive: 0.009	inactive: -0.071
EXOSC2 (UniProt Q13868)	inactive: -0.016	inactive: -0.034	inactive: -0.007	inactive: -0.076	inactive: 0.041	inactive: 0.055	inactive: -0.028	inactive: 0.02	inactive: -0.051	inactive: 0.014	inactive: 0.028	inactive: -0.025	inactive: 0.027	inactive: -0.008	inactive: -0.01	inactive: 0.002	inactive: 0	inactive: -0.007	inactive: -0.019	inactive: 0.005
EXOSC3 (UniProt Q9NQT5)	inactive: -0.051	inactive: -0.028	inactive: -0.052	inactive: -0.063	inactive: 0.033	inactive: 0.044	inactive: -0.005	inactive: 0.031	inactive: -0.14	inactive: 0.058	inactive: 0	inactive: -0.01	inactive: -0.028	inactive: -0.03	inactive: -0.037	inactive: -0.083	inactive: -0.037	inactive: 0.036	inactive: 0.027	inactive: -0.006
ESYT2 (UniProt H7BXI1)	inactive: -0.008	inactive: 0.01	inactive: -0.039	inactive: 0.089	inactive: 0.018	inactive: -0.073	inactive: 0.063	inactive: 0.018	inactive: -0.115	inactive: 0.002	inactive: 0.016	inactive: -0.017	inactive: -0.01	inactive: 0.037	inactive: 0.02	inactive: 0.027	inactive: 0.009	inactive: -0.015	inactive: -0.031	inactive: -0.051
FAM49B (UniProt Q9NUQ9)	inactive: -0.011	inactive: 0.004	inactive: -0.016	inactive: -0.023	inactive: -0.003	inactive: 0.023	inactive: 0.016	inactive: 0.011	inactive: 0.043	inactive: -0.049	inactive: 0.005	inactive: -0.009	inactive: 0.036	inactive: -0.002	inactive: 0.006	inactive: 0.028	inactive: 0.016	inactive: -0.006	inactive: -0.004	inactive: 0
FAHD2B (UniProt Q6P2I3)	inactive: 0.048	inactive: 0	inactive: 0.002	inactive: -0.044	inactive: 0.05	inactive: 0.04	inactive: -0.047	inactive: -0.093	inactive: -0.04	inactive: -0.093	inactive: -0.039	inactive: 0.104	inactive: -0.344	inactive: 0.037	inactive: 0.11	inactive: 0.075	inactive: 0.025	inactive: 0.117	inactive: -0.013	inactive: -0.02
FAM107B isoform 2 (UniProt Q9H098)	inactive: -0.02	inactive: -0.001	inactive: -0.03	inactive: 0.084	inactive: 0.13	inactive: -0.017	inactive: -0.069	inactive: -0.102	inactive: 0.011	inactive: -0.081	inactive: -0.198	inactive: 0.038	inactive: 0.079	inactive: -0.101	inactive: 0.096	inactive: -0.025	inactive: -0.106	inactive: 0.074	inactive: -0.004	inactive: -0.082
FAM50A (UniProt Q14320)	inactive: -0.003	inactive: 0.005	inactive: 0.033	inactive: 0.128	inactive: 0.003	inactive: -0.015	inactive: -0.004	inactive: 0.008	inactive: -0.015	inactive: -0.048	inactive: -0.012	inactive: 0.032	inactive: 0.025	inactive: 0.001	inactive: -0.009	inactive: 0.039	inactive: 0.01	inactive: -0.053	inactive: 0.012	inactive: 0.015

Part of the list above, reformatted.
Target | log2 fold change (lapatinib) | log2 fold change (pictilisib) | log2 fold change (crizotinib) | log2 fold change [1] | log2 fold change (duvelisib) | log2 fold change (gandotinib) | log2 fold change (tozasertib) | log2 fold change (doramapimod) | log2 fold change (bafetinib) | log2 fold change [2] | log2 fold change (nilotinib) | log2 fold change [3] | log2 fold change (dasatinib) | log2 fold change [4] | log2 fold change [5] | log2 fold change (quisinostat) | log2 fold change (tipifarnib) | log2 fold change [6] | log2 fold change [7] | log2 fold change [8]
FAM117A (UniProt Q9C073) | inactive: -0.026 | inactive: -0.012 | inactive: 0.016 | inactive: 0.062 | inactive: 0.021 | inactive: 0.003 | inactive: -0.025 | inactive: 0.019 | inactive: -0.005 | inactive: -0.046 | inactive: 0.007 | inactive: 0.098 | inactive: -0.034 | inactive: 0.023 | inactive: -0.054 | inactive: -0.058 | inactive: 0.009 | inactive: 0.051 | inactive: 0.01 | inactive: 0.009
ERLIN2 (UniProt O94905) | inactive: -0.015 | inactive: -0.091 | inactive: -0.004 | active: 0.304 | inactive: 0.003 | inactive: -0.077 | inactive: 0.02 | inactive: 0.043 | inactive: -0.015 | inactive: -0.114 | inactive: -0.009 | inactive: 0.001 | inactive: -0.013 | inactive: -0.019 | inactive: 0.03 | inactive: 0.021 | inactive: 0.012 | inactive: -0.038 | inactive: 0.012 | inactive: -0.01
ERMP1 (UniProt Q7Z2K6) | inactive: -0.006 | inactive: -0.023 | inactive: -0.014 | inactive: -0.069 | inactive: -0.036 | inactive: 0.122 | inactive: -0.008 | inactive: -0.021 | inactive: 0.019 | inactive: 0.054 | inactive: 0.049 | inactive: -0.035 | inactive: -0.006 | inactive: 0.019 | inactive: -0.011 | inactive: -0.04 | inactive: -0.089 | inactive: -0.002 | inactive: -0.005 | inactive: -0.021
